Measurements reported in article PMC7819943, “Rice protein-binding microarrays: a tool to detect cis-acting elements near promoter regions in rice”.
Some of the results follow.

Amino acid sequences for entries named in this document (tags omitted).
UniProt Q0JBA9, entry or part of it: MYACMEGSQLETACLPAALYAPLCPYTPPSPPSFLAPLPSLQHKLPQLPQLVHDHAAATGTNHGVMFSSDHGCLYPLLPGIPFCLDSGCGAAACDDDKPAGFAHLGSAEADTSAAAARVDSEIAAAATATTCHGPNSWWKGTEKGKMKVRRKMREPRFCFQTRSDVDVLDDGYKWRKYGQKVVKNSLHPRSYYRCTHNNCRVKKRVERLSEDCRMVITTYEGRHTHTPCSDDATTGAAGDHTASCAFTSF

Biological target: OsWRKY34 (Oryza sativa, UniProt Q0JBA9 1-250)
Assay: protein-binding microarray (RPBM); PBS, 2% BSA, 51.3 ng/ul salmon testes DNA, 50 uM zinc acetate, 200 nM TF, 25 C, 1 h; high values mean tight binding
Settings: protein: recombinant; tags: N-terminal polyhistidine and DsRed monomer fusion (pET32a); label: CyDye5-dUTP incorporated in the synthesized complementary strand; 3' TTTTT single-stranded linker to array surface; dsDNA, one strand shown
Outline: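 A custom Agilent array was converted to double-stranded form by primer extension with Cy5-dUTP and blocked with 2% BSA. Protein at 200 nM in PBS with 2% BSA, salmon testes DNA and 50 µM zinc acetate was applied for 1 h at 25 °C, followed by washing. The proteins were polyhistidine–DsRed N-terminal fusions of transcription factors, expressed in E. coli BL21-CodonPlus and Ni–NTA-purified. The binding signal is per-feature fluorescence intensity (arbitrary units) from an Axon 4000B scanner.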

In order of rising binding signal:
1. TACTGCCCATCTCCGCCATAGCGTCGTACGTACTACACGCCGGAGTCACCTAGTGCAG  8080 fluorescence intensity (a.u.)
2. AATGCCCATAAAATCAATGCAACACTTTCCCCATTTCACTCGGAGTCACCTAGTGCAG  8090 fluorescence intensity (a.u.)
3. AGTTGCTTATTGCTTCCTCTTTGCCTCCTCACTCCATGACCGGAGTCACCTAGTGCAG  8100 fluorescence intensity (a.u.)
4. GGTACCCCTTCTTGCCGCTGCGCGCCCACAGGTCGTCGGCCGGAGTCACCTAGTGCAG  8100 fluorescence intensity (a.u.)
5. ATGCCGGGGAGCTCGCCTACTCGCCATCGTCTGCCGCACCCGGAGTCACCTAGTGCAG  8110 fluorescence intensity (a.u.)
6. AATGGCTAGCGTATAATCTGTCTTGGAATCACTTTGCTGCCGGAGTCACCTAGTGCAG  8120 fluorescence intensity (a.u.)
7. CTGGCTGACCGGCAAGTCACCTATCGTTGTCTCATCTTCTCGGAGTCACCTAGTGCAG  8160 fluorescence intensity (a.u.)
8. ACCCTTCTCTTCCCCAAATCATCTGGAATCCAACGCCTGACGGAGTCACCTAGTGCAG  8160 fluorescence intensity (a.u.)
9. TCTTGCTGCTTGCTTGGTGGTGGTGGTAGCTTTCATAATGCGGAGTCACCTAGTGCAG  8170 fluorescence intensity (a.u.)
10. CAGATCATCACCTCTCCACCCGTTTCTTTCTCGGCCCATCCGGAGTCACCTAGTGCAG  8210 fluorescence intensity (a.u.)
11. GCCCCGGACAATGGAGGATGGATATTTGCTACTAGTACCGCGGAGTCACCTAGTGCAG  8320 fluorescence intensity (a.u.)
12. TCTCCCACGTCCGCGCGCCGCCGCCTCCCTCCTCGCCACCCGGAGTCACCTAGTGCAG  8320 fluorescence intensity (a.u.)
13. CACACACACAAATCCACAAGTAGACATCCTTCCATGTCTTCGGAGTCACCTAGTGCAG  8380 fluorescence intensity (a.u.)
14. CATACTCTTTACCTTTTTTTTTGGCTCAGAGTTGGAAGCACGGAGTCACCTAGTGCAG  8410 fluorescence intensity (a.u.)
15. ACTATTTCCTTGGCTCACCAGTAACTAAACACACCCATCACGGAGTCACCTAGTGCAG  8430 fluorescence intensity (a.u.)
16. GATGTACCGAGTATACACGACAAGCGCTCACAGCCCAAACCGGAGTCACCTAGTGCAG  8500 fluorescence intensity (a.u.)
17. TCAAATCCCACCCGTGCACTCGAGCCCCGCCACGTCCTTCCGGAGTCACCTAGTGCAG  8550 fluorescence intensity (a.u.)
18. ACAACTGCGCGTCTTCACTACCGGTTTGCTTCTGTTGCCGCGGAGTCACCTAGTGCAG  8560 fluorescence intensity (a.u.)
19. AGTTAAAACCAAATGAATATCTGCCACGCCATTGACCAAACGGAGTCACCTAGTGCAG  8590 fluorescence intensity (a.u.)
20. TCCTAAACTTCTATATTTCCAAATTTGTGTTTTTACCATACGGAGTCACCTAGTGCAG  8600 fluorescence intensity (a.u.)
21. TCCAAACACATCACCTCCTATCTCCACCGGCACGCATGCCCGGAGTCACCTAGTGCAG  8660 fluorescence intensity (a.u.)
22. TGGTCATCATTTGCTATTTTTTCCTGCAGAGGGAATCAATCGGAGTCACCTAGTGCAG  8670 fluorescence intensity (a.u.)
23. ATTAGAGAATAGAAAGTTGTCGTTGACTCCATCTCTTTAACGGAGTCACCTAGTGCAG  8690 fluorescence intensity (a.u.)
24. ACCAACCCTTCGTCCCAAGTGCCAACTGCGCCTGTCCGATCGGAGTCACCTAGTGCAG  8710 fluorescence intensity (a.u.)
25. ACCTACACTTATATATCTGTTCATCTTGTGATAACGCTTCCGGAGTCACCTAGTGCAG  8710 fluorescence intensity (a.u.)
26. GTTGTTTTTTTCCTGTGATGGAGGGTGTAGGTCGTAAAGTCGGAGTCACCTAGTGCAG  8730 fluorescence intensity (a.u.)
27. ATCGTCGCAGTCGGACGGAGCGCCACGCCTTTTGACCGCGCGGAGTCACCTAGTGCAG  8740 fluorescence intensity (a.u.)
28. GGTTATCCTTCGTCTGTGGTTATCCGGGCTTAGGGTTCAGCGGAGTCACCTAGTGCAG  8750 fluorescence intensity (a.u.)
29. AGAATCCTGTGTTTTTCCTATTACTCCGTTTTTTCTACCCCGGAGTCACCTAGTGCAG  8760 fluorescence intensity (a.u.)
30. CCGCCCAAAACCACCGCCAAACCTCGCCGCCGAGCTGCCACGGAGTCACCTAGTGCAG  8760 fluorescence intensity (a.u.)
31. AAGTTGTGTTGGTTAGTAACTTAGAGTGTGGTTGGGCGAACGGAGTCACCTAGTGCAG  8810 fluorescence intensity (a.u.)
32. ACATCCATCCTTTCTATGGTGATCTCCTACATGTTCTGTACGGAGTCACCTAGTGCAG  8820 fluorescence intensity (a.u.)
33. GTCTCTCTCTCACTGAACTTGTTGCTTCCGCGGCGACTGCCGGAGTCACCTAGTGCAG  8830 fluorescence intensity (a.u.)
34. AGGTCGTTGTACACAGTGGTAGTTAATTAATTAGTCCATCCGGAGTCACCTAGTGCAG  8840 fluorescence intensity (a.u.)
35. CTCCACTTCGATCGACCGTTTCGTCGCGGCCACGAAATCGCGGAGTCACCTAGTGCAG  8860 fluorescence intensity (a.u.)
36. ACTTTTCCGTCACATCGTTTCAATTTCAACTAAACTTTCACGGAGTCACCTAGTGCAG  8920 fluorescence intensity (a.u.)
37. CAGCATCACTAATTTGTCTGAATTCTATATTCCATGCTCGCGGAGTCACCTAGTGCAG  8960 fluorescence intensity (a.u.)
38. ATGATACACAGACCTTTGACATGTTCAACTCATTTCGTATCGGAGTCACCTAGTGCAG  8960 fluorescence intensity (a.u.)
39. CTTCCCCACCCAGCTGCGCGCCATTTTGTTCCACCGCGTCCGGAGTCACCTAGTGCAG  8980 fluorescence intensity (a.u.)
40. ATCGTGGAGGTTTTATATCAGCTAGTCACTTGGTTTACCGCGGAGTCACCTAGTGCAG  9000 fluorescence intensity (a.u.)
41. TATTACTGGCCCAATTTTTTAGCCCATTAACGATCTGTTGCGGAGTCACCTAGTGCAG  9010 fluorescence intensity (a.u.)
42. ATTTTTTACCTAGCCTCTGCATCATGAATACATTTACTTTCGGAGTCACCTAGTGCAG  9020 fluorescence intensity (a.u.)
43. ACATATGAAATTGCGCAACAACCAACTTCAATACATTTTTCGGAGTCACCTAGTGCAG  9030 fluorescence intensity (a.u.)
44. TCCACCTCACCTTGCACCACCTGCTCCGCCGCCGCCGCCGCGGAGTCACCTAGTGCAG  9040 fluorescence intensity (a.u.)
45. CGGTTTTTACTATACTGCCCTTGGCTGCACAACCTTTTATCGGAGTCACCTAGTGCAG  9080 fluorescence intensity (a.u.)
46. TGACAAGTTGAGGGACCTTCGGTGTACTTTTTCCTTGTTTCGGAGTCACCTAGTGCAG  9100 fluorescence intensity (a.u.)
47. TTTTGCTTTGCGACACCGTACGTCCATGTTGCCCCAAACACGGAGTCACCTAGTGCAG  9120 fluorescence intensity (a.u.)
48. CTCCACGCATTGCTTCTTGATTCTTGATTCTTGCTGCTTCCGGAGTCACCTAGTGCAG  9130 fluorescence intensity (a.u.)
49. CTTGTTAAACTATTTAATATGGTTTTATGCTGTTTTGTTTCGGAGTCACCTAGTGCAG  9180 fluorescence intensity (a.u.)
50. TGATCTCTTTCTTCTCGATCGAAGGCGAGCTTTGAGTCAACGGAGTCACCTAGTGCAG  9230 fluorescence intensity (a.u.)
51. AACCTTACATGCACCCTGCGTACTTTGATTTGCACACAATCGGAGTCACCTAGTGCAG  9240 fluorescence intensity (a.u.)
52. ACTTATGTTTTCTCAAATTAAGTTATATTTGTTTTTTTTTCGGAGTCACCTAGTGCAG  9260 fluorescence intensity (a.u.)
53. ATACATGCACCCTTATACTCGTCGAACGTAATATTATACACGGAGTCACCTAGTGCAG  9350 fluorescence intensity (a.u.)
54. CATGGTGTTTGGCTGTTATTTTTTTAAAAAATATTTGTTACGGAGTCACCTAGTGCAG  9500 fluorescence intensity (a.u.)
55. TAAACCCAGGGCCGCTGTCTCCGCCTCCGCCTCCGCCATGCGGAGTCACCTAGTGCAG  9540 fluorescence intensity (a.u.)
56. TGGCCGTCTCGTCTCCGCTCCTCGCGCCCTGCGCCGATCTCGGAGTCACCTAGTGCAG  9560 fluorescence intensity (a.u.)
57. AGGCTGGGGTTAGTGTGGAAGGGGAGGATTGGAACTTTGCCGGAGTCACCTAGTGCAG  9600 fluorescence intensity (a.u.)
58. GTTTACCATTGCATTCCCCGGTCCACGTGCATCAGTGCATCGGAGTCACCTAGTGCAG  9610 fluorescence intensity (a.u.)
59. ACTCACTCGCTCACACCTTCCATTAGATTTACATTTTGGTCGGAGTCACCTAGTGCAG  9740 fluorescence intensity (a.u.)
60. GTCCATCGACCAAAGTCGTCCAAGTGCAGCATATATATAACGGAGTCACCTAGTGCAG  9760 fluorescence intensity (a.u.)
61. AACAGGCCATATATCGATCCGCGCGGGCCCACCTACCTTCCGGAGTCACCTAGTGCAG  9790 fluorescence intensity (a.u.)
62. GATTCCCAGTCCGACTCAGTGTTTCCTGTCCTCGCGCAGACGGAGTCACCTAGTGCAG  9940 fluorescence intensity (a.u.)
63. TTTTCTCACATGTTTGACCATTCGTCTTATTCAAAAATTTCGGAGTCACCTAGTGCAG  9990 fluorescence intensity (a.u.)
64. GAGTACCTCTCGTTGTCTCCTCCGCTCCTTGCCTCGTTGCCGGAGTCACCTAGTGCAG  10100 fluorescence intensity (a.u.)
65. TCTCACTGTTGGCACTTTCACAATCACATCCGCGCGCATTCGGAGTCACCTAGTGCAG  10200 fluorescence intensity (a.u.)
66. GGTGCGACGGCTTGGTTGATTGGGTGACGGGTGGGATTTGCGGAGTCACCTAGTGCAG  10500 fluorescence intensity (a.u.)
67. TAAATTGTTCGTTACCGTATCCACGCAGGTTTGTTTTTGCCGGAGTCACCTAGTGCAG  10600 fluorescence intensity (a.u.)
68. TTTGCTTGACTGGATCCAGCCGTTCGTTTTTTCCTTCTTTCGGAGTCACCTAGTGCAG  10800 fluorescence intensity (a.u.)
69. TGCACACACCCTCCCTTTGGCTTTCATCTGCATCTATTCACGGAGTCACCTAGTGCAG  11000 fluorescence intensity (a.u.)
70. ATTTTTGTTCATCTATGCGTGATTGTACTCGTCGCCCTCGCGGAGTCACCTAGTGCAG  11100 fluorescence intensity (a.u.)
71. TAAAACACCCGGTCTCGTGTCGCTTTGATAACTGCCTCTCCGGAGTCACCTAGTGCAG  11100 fluorescence intensity (a.u.)
72. TTCTTCGATTGTTCAGGAGTTAGTGTTTGTCTGCTTTTTTCGGAGTCACCTAGTGCAG  11100 fluorescence intensity (a.u.)
73. ATCACACGCGTCTACCGCCAGTTGGCTCTCCATGTCTATACGGAGTCACCTAGTGCAG  11200 fluorescence intensity (a.u.)
74. CTGCAGTATCCTCCACTCCACTTTGGCACCATTGTCCCACCGGAGTCACCTAGTGCAG  11300 fluorescence intensity (a.u.)
75. GGCAGGTTGCAGTTGTCGCTTGCGGGGAGGACGGGGAATGCGGAGTCACCTAGTGCAG  12100 fluorescence intensity (a.u.)
76. CCCTCATCTTCTTCTGTCCTCACGGCCTCCACTTTCTGCTCGGAGTCACCTAGTGCAG  12300 fluorescence intensity (a.u.)
77. TCTCCAAACTATCTACCTCTACTCCTCTTCTCTTCATTTTCGGAGTCACCTAGTGCAG  12500 fluorescence intensity (a.u.)
78. CGCACATATGGTAAGCATCCTCGTCTCCTCCTGCTCGTTCCGGAGTCACCTAGTGCAG  13100 fluorescence intensity (a.u.)
79. TATATATATATATATATATGGGTGGTGTTCTTTTCTCTGGCGGAGTCACCTAGTGCAG  13300 fluorescence intensity (a.u.)
80. GTCTACTACGGTAGTGTTTGGTTGAGGGGATGGGATGGGACGGAGTCACCTAGTGCAG  13900 fluorescence intensity (a.u.)
81. CGTTTCTGCCGTGCTCGCCTCTGCCTCTCTCTCTCTCATCCGGAGTCACCTAGTGCAG  14000 fluorescence intensity (a.u.)
82. TCGGCTATCCTGCACTGCATCTTCATCTCGAAAATTTTCACGGAGTCACCTAGTGCAG  14700 fluorescence intensity (a.u.)
83. TCTCCTCTCGGCTCTCTTATCTCACCCTTCGTTTCGCTCGCGGAGTCACCTAGTGCAG  15000 fluorescence intensity (a.u.)
84. GGGTGGAGGAGGGGACTTCGGGAGGGCGGTGGCGAGGGCGCGGAGTCACCTAGTGCAG  16400 fluorescence intensity (a.u.)
